Laboratory results reported in PubChem BioAssay AID540256 (National Center for Advancing Translational Sciences (NCATS), 2011).
Among all 300,000 compounds or so, about 3,700 (1.2%) were called active. The inconclusive results got no clear call from the source; some entries with a clear call stand among them for comparison. Calls follow the shape of the full dose curve; tested in HEK293 cells. Where the call is inconclusive, the potency comes from a doubtful curve fit.

Assay: qHTS for Inhibitors of binding or entry into cells for Lassa Virus; also: nearly all actives have a fitted effect of over 50% in size
Details: Lassa virus pseudotype entry inhibition, cell reporter; series mostly up to 37.9 µM
Potency is read from the fitted curve at half-maximal effect.

SMILES	Potency
Cc1ccccc1OCC(O)Cn1nnc2ccccc21 (configuration not stated)	inconclusive: 23.1 µM [activator, partial curve, poor fit]
CC(=O)Nc1ccc(S(=O)(=O)NCCC(=O)Nc2ccc(C)c(F)c2)cc1	inactive
CCN(c1ccccc1)S(=O)(=O)c1ccc(-c2cc(C)no2)s1	inconclusive: 22.4 µM [inhibitor, single point]
O=C(O)C1C2CCC(C2)C1C(=O)Nc1ccc(Cl)c(Cl)c1 (configuration not stated)	inconclusive: 22.4 µM [inhibitor, single point]
Cc1ccc(C(=O)COC(=O)C(Cc2c[nH]c3ccccc23)NC(=O)c2ccc(C(C)(C)C)cc2)cc1 (configuration not stated)	inconclusive: 12.6 µM [inhibitor, partial curve, poor fit]
CN(C)C(=O)Oc1ccc([N+](=O)[O-])cc1	inactive
O=C(CCNS(=O)(=O)c1ccc(Br)cc1)NNC(=O)C1COc2ccccc2O1 (configuration not stated)	inconclusive: 35.5 µM [inhibitor, single point]
O=C(/C=C/c1ccccc1)OCC(=O)c1c[nH]c2ccccc12	inactive
CC1CN(C(=O)c2ccc(S(=O)(=O)Nc3cccc(C(F)(F)F)c3)cc2)CC(C)O1 (configuration not stated)	inconclusive: 5.62 µM [inhibitor, partial curve]
CCn1cnc2c(=O)oc3ccc(S(=O)(=O)Nc4ccc(OC)cc4)cc3c21	inconclusive: 7.08 µM [activator, full curve, poor fit]
CCC1CCCCN1S(=O)(=O)c1cc(C(=O)Nc2ccc(C)c(F)c2)ccc1F (configuration not stated)	inconclusive: 12.6 µM [inhibitor, partial curve, poor fit]
Cc1nc(Sc2ccc(Cl)cc2)c(C#N)c(C)c1[N+](=O)[O-]	inactive
COc1ccc(CCNC(=O)c2ccc(Cn3c(=O)c4ccccc4n(Cc4cccc(C)c4)c3=O)cc2)cc1OC	inconclusive: 35.5 µM [activator, single point]
Cc1ccc(CNC(=O)c2cnn(-c3cccc(C)c3)c2C2CCN(C(=O)OC(C)(C)C)CC2)cc1	inconclusive: 6.31 µM [inhibitor, partial curve, poor fit]
Cc1cc(Br)cc2c(C(=O)NCC3CCCO3)cc(-c3ccccc3)nc12 (configuration not stated)	inactive
CC(=O)c1ccc(NS(=O)(=O)c2ccc(-c3cnc(C4CC4)o3)cc2)cc1	inconclusive: 22.4 µM [inhibitor, single point]
N#Cc1c(N2CCN(C(=O)c3ccccc3Cl)CC2)nc(-c2ccccc2)c2c1CCCC2	inconclusive: 35.5 µM [inhibitor, single point]

Some of the entries above, set out differently.
SMILES | Potency
CCN(c1ccccc1)S(=O)(=O)c1ccc(-c2cc(C)no2)s1 | inconclusive: 22.4 µM [inhibitor, single point]
N#Cc1c(N2CCN(C(=O)c3ccccc3Cl)CC2)nc(-c2ccccc2)c2c1CCCC2 | inconclusive: 35.5 µM [inhibitor, single point]
